Experimental data: patent US20150140000A1
These are yes or no findings as the source states them, for the method shown. Some results given as binding are weak or reduced against the parent protein; the word gives no strength.

Sequences of proteins named here, by UniProt entry; tags and fusion partners are left off. A change or cut given only in a name is not applied to a line headed by its entry.
UniProt O15455: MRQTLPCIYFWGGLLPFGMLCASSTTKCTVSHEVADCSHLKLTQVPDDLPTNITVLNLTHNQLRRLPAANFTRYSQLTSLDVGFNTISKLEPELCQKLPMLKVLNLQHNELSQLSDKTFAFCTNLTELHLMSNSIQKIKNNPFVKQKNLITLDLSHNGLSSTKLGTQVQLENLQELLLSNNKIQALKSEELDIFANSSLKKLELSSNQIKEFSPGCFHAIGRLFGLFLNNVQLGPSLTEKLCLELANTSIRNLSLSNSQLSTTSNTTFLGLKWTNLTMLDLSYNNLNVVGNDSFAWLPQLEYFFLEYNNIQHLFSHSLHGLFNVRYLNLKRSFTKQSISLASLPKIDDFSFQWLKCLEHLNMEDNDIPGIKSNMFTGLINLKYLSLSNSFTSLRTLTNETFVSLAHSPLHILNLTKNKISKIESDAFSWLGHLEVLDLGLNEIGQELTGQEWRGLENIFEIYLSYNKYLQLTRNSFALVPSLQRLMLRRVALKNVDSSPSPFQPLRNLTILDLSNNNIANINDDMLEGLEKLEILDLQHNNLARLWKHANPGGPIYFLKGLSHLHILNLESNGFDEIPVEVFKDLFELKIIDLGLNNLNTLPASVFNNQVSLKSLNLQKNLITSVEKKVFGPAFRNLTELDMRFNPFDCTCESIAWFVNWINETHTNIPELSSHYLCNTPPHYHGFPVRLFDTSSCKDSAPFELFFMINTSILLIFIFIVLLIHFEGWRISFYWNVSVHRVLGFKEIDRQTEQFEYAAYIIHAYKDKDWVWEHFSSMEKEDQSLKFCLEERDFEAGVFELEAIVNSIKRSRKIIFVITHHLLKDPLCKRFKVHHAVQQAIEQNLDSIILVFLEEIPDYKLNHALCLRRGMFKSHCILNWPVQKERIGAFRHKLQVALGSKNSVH

Molecular target: wild type human TLR3 expressed in 293T cells (human) (UniProt O15455)
Experiment: FACS on cells expressing TLR3

binding	Binder
binds	antibody 31F6 (antibody, V domains shown) VH: EVQLQQSGAELGKPGTSVKLSCKVSGYNIRYTYMHWVNQRPGKGLEWIGRIDPANGDSIYGEDFKTKATLTADTSSNTAYMQLSQLKSDDTAIYFCAMGEFDYFDYWGQGVMVTVSSASTK VL: DIQMTQSPPSLSASLGETVSIECLASEGISNDLAWYQQRSGKSPQLLIYAASRLQDGVPSRFSGSGSGTRYSLKISGMQPEDEADYFCQQNYKYPLTFGSGTKLEIK
binds	antibody 37B7 (antibody, V domains shown) VH: QVQLQQSGTELVKPGSSVKISCKASGYTFTSNYMHWIRQLPGNGLEWIGWIFPGDGDTNYNQKFNGKATLTADKSSSTAYMQLSSLTSEDYAVYFCARSDGDWYFDFWGPGTMVTVSS VL: DIQMTQSPGSLSASLGETVTIQCQASEDIYSGLAWYQQKPRKSPQLLISAASRLQDGVPSRFSGSGSGTQYSLKISSMQTEDEGVYFCQQGVKYPNTFGPGTKLELK

Continued, binder first:

Binder	binding
antibody 7G11 (antibody, V domains shown) VH: EVQLQQYGAELGKPGTSVKLSCKVSGYNITYTYMHWVNQRPGKGLEWIGRIDPANGNTIYGEKFKNKATLTADTSSNTAYMQLSQLKSDDTAIYFCAMGEFDYFDHWGQGVMVTVSS VL: DIQMTQSPASLSASLGETVSIECLASEDISNDLAWYQQKSGKSPQVLIYAASRLEDGVPSRFSGSGSGTRYSLKISGMQPEDEADYFCQQSYKYPVTFGSGTKLEIK	binds
antibody 11E1 (antibody, V domains shown) VH: QVQLQQPGAELVRPGASVKLSCKASGYTFTNYWMNWVKQRPGQGLEWIGMIDPSDSETHYNQMFKDKATLTVDKSSSTAYMQLSSLTSEDSAVYYCARGGASSDYYYFDYWGQGTTLTVSSASTK VL: ETTVTQSPASLSMAIGEKVTIRCITSTDIHDDINWYQQKPGEPPKLLISEGNTLRPGVPSRFSSSGYGTDFVFTIENMLSEDVADYYCLQSDNLPRTFGGGTKLEIKRT	binds
antibody 32C4 (antibody, V domains shown) VH: EVQLQQYGAELGKPGTSVKLSCKVSGYNIWSTYIYWVNQRPGKGLEWIGRIDPANGNTIYAEKFKTKATLTADTSSNTAYMQLSQLKSDDTAIYFCAMGDHGGYVMDAWGQGASVTVSS VL: DIQMTQSPGSLSASLGETVSIECLASEDIYSYLAWYQQKPGKSPQLLIYAANRLEDGVPSRFSGSGSGTQYSLKISGMQPEDEGDYFCLQGSEFPYTFGTGTKLELK	binds
